# Assay results: the supplement of paper PMC12067093, “Discovery and optimisation of a covalent ligand for TRIM25 and its application to targeted protein ubiquitination” (Chemical Science, 2025)
# The list shows a part of the results.
# Molecular target: T1, TRMT12_Q53H54_444_SYAPHVDHIVLDLECCPCPSVG (UniProt Q53H54)
# T1 sequence (whole entry): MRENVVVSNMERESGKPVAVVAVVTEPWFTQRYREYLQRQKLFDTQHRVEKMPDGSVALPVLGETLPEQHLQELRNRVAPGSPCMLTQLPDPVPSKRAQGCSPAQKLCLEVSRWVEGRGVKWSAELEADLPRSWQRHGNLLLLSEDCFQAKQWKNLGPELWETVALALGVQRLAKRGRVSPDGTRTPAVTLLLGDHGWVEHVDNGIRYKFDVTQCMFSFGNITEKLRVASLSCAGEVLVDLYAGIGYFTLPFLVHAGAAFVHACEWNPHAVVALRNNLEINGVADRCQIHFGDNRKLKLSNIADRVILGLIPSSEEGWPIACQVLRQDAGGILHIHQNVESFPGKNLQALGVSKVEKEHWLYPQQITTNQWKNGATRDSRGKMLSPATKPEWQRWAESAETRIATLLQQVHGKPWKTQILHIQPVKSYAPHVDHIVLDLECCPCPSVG
# Assay: probe-labelled cysteine peptide fold change vs DMSO (competition) (log2 fold change); higher = less target engagement (more negative = stronger competition)
# Settings: THP-1, incubation time: 4 h
# 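Note: competitive profiling in live THP-1 cells: cysteine peptides tagged with an iodoacetamide desthiobiotin (IA-DTB) probe, intensity after compound treatment relative to DMSO-treated cells.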
structure (smiles),measurement,setting,value
Cc1cc(C(=O)N2CCCN(C(=O)CCl)CC2)ccc1-c1ccccc1 [compound 10],probe-labelled cysteine peptide fold change,10 µM,0.0896
same,probe-labelled cysteine peptide fold change,50 µM,0.123
